The source of these data is article PMC2364652.

By UniProt entry, the sequences of proteins in these tests, tags left out. Residues count along the entry.
UniProt P07948, residues 63-123: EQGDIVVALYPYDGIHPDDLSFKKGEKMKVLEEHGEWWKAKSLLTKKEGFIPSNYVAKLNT

The target in assay [1] is SH3 domain of Lyn (spot of the TranSignal SH3 domain array III) (human) (UniProt P07948). Kind of assay: peptide or protein array; TranSignal SH3 domain array III (34 human SH3 domains spotted in duplicate); membrane incubated with 30 µg/ml AQP5 WT overnight; detected with HRP-conjugated FLAG antibody; both purified.
Assay [2] has as its target GST fusion protein of the Lyn SH3 domain (human) (UniProt P07948). Kind of assay: pull-down; BEAS-2B lysate in NP-40 lysis buffer incubated with GST fusion protein at 4°C for 2 hours, glutathione-Sepharose 4B beads, immunoblot; only the target purified. (Immunoblotting shows a protein as a band on a membrane.)

No constants are given. Whether binding was seen depends on the method and setting. For some assays here: In cells and extracts the contact can be indirect. Some results given as binding are weak or reduced against the parent protein; the word gives no strength.

Consider “full length wild-type AQP5 (aquaporin 5) (from UniProt P55064 1-265)”, for which the binding result in assay [1] and in assay [2] was “binds” each time.
